Experimental data taken from patent US20040072990A1, “Antimicrobial peptides with reduced hemolysis and methods of their use” (priority 2002, published 2004).
Not every detail of the peptide structures is certain; ends, links or a residue may be inferred. Residues, ends and D or L forms follow the SMILES beside them.

system: outer membrane of E. coli; assay: NPN uptake outer membrane permeabilization assay; format: cell-based; conditions: intact cells of E. coli

Point of comparison: CC[C@H](C)[C@H](NC(=O)[C@H](Cc1c[nH]c2ccccc12)NC(=O)[C@H](CCCCN)NC(=O)[C@@H](NC(=O)[C@H](Cc1c[nH]c2ccccc12)NC(=O)[C@@H](N)CCCCN)[C@@H](C)CC)C(N)=O [Pac-305 L, K W I K W I] (H-KWIKWI-NH2; N-terminus and C-terminus assumed), “P50 (concentration of peptide leading to a 50% of maximal increase in NPN uptake)” value 16 µg/mL. Against it:
- CC[C@H](C)[C@H](NC(=O)[C@H](Cc1c[nH]c2ccccc12)NC(=O)[C@H](CCCNC(=N)N)NC(=O)[C@H](CCCNC(=N)N)NC(=O)[C@H](Cc1c[nH]c2ccccc12)NC(=O)[C@@H](N)CCCCN)C(N)=O [Pac 301 L, K W R R W I] (H-KWRRWI-NH2; N-terminus and C-terminus assumed) — 2-fold lower, 8 µg/mL
- CC[C@H](C)[C@H](NC(=O)[C@H](Cc1c[nH]c2ccccc12)NC(=O)[C@H](CCCCN)NC(=O)[C@@H](NC(=O)[C@H](Cc1c[nH]c2ccccc12)NC(=O)[C@H](CCCCN)NC(=O)[C@@H](NC(=O)[C@H](Cc1c[nH]c2ccccc12)NC(=O)[C@@H](N)CCCCN)[C@@H](C)CC)[C@@H](C)CC)C(N)=O [Pac-521 L, K W I K W I K W I] (H-KWIKWIKWI-NH2; N-terminus and C-terminus assumed) — 8-fold lower, 2 µg/mL
- CC[C@H](C)[C@H](NC(=O)[C@H](Cc1c[nH]c2ccccc12)NC(=O)[C@H](CCCNC(=N)N)NC(=O)[C@@H](NC(=O)[C@H](Cc1c[nH]c2ccccc12)NC(=O)[C@H](CCCNC(=N)N)NC(=O)[C@H](CCCNC(=N)N)NC(=O)[C@H](Cc1c[nH]c2ccccc12)NC(=O)[C@@H](N)CCCCN)C(C)C)C(N)=O [Pac-525 L, K W R R W V R W I] (H-KWRRWVRWI-NH2; N-terminus and C-terminus assumed) — 8-fold lower, 2 µg/mL
- CC[C@H](C)[C@H](NC(=O)[C@H](Cc1c[nH]c2ccccc12)NC(=O)[C@H](CCCNC(=N)N)NC(=O)[C@@H](NC(=O)[C@H](Cc1c[nH]c2ccccc12)NC(=O)[C@H](CCCNC(=N)N)NC(=O)[C@@H](NC(=O)[C@H](Cc1c[nH]c2ccccc12)NC(=O)[C@@H](N)CCCCN)[C@@H](C)CC)C(C)C)C(N)=O [Pac-529 L, K W I R W V R W I] (H-KWIRWVRWI-NH2; N-terminus and C-terminus assumed) — 4-fold lower, 4 µg/mL
